# Library screen at single concentrations

Data taken from ChEMBL document CHEMBL3988442, “University of Dundee, Small-Polar-MMV Screening Library” (2021).

A: 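Growth of Mycobacterium tuberculosis over 4 days (cholesterol / DPPC medium with tyloxapol); the read-out is not stated. Compounds at 50 µM. Direction is inferred from retests: higher values go with more growth inhibition. About 69,000 compounds were tested under these conditions; 0.54% (about 370) showed 50% or more at least once.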
B: 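Whole-cell growth test on Mycobacterium tuberculosis, read after 3 days in glucose-containing 7H9 medium; the read-out is not stated. Concentration: 50 µM. The record gives no direction; compounds that gave an IC50 in retests scored well above the rest, so higher reads as more growth inhibition. About 69,000 compounds were tested under these conditions; 1.1% (about 760) showed 50% or more at least once.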

Values are the deposited “Percent Effect”, in %. The controls that fix the scale are not given in the record; negative values are as filed. This is an unselected part of the compounds tested. Two or more numbers in one place are separate tests of the same structure; such repeats can differ widely.

Compound,A,B
Cc1ccc(-c2c[nH]c([C@@H]3COCCN3Cc3cccnc3)n2)cc1,-13.58%,-11.26% & -2.708%
CC(NC(=O)c1cccc[n+]1[O-])C1CC1 (stereo not drawn),-14.8%,-18.92%
CN(C)S(=O)(=O)N1CCCC1CC(=O)c1cccs1 (stereo not drawn),6.003%,3.176%
C1CCC(CNC2CCCN(Cc3noc(C4CC4)n3)C2)C1 (stereo not drawn),-14.15%,2.264% & -10.09%
CS(=O)(=O)Nc1cnn(Cc2cccc(Cl)c2)c1,-4.209%,20.59%
[H][C@@]12OCCN(CCN3CCCCC3)[C@@]1([H])CC[C@@H]2OCc1ccccn1,-12.65%,-22.79%
CCC(=O)N1CCN(c2ncnc3c(C)nn(C)c23)CC1,-12.08%,-6.757%
O=C(C1CC1)N1CC2(CCNCC2)c2cc(F)ccc21.O=C(O)C(F)(F)F,2.049%,-12.65%
CN(C)[C@@H]1CN(C(=O)c2cc3cccc(F)c3[nH]2)C[C@H]1O,20.69% & 3.038%,5.441%
O=C(O)C(F)(F)F.[H][C@@]12CCN(S(=O)(=O)CC)CC[C@]1(C(=O)N1CCOCC1)CCN2CC,-8.475%,2.559%
Cc1ccc(F)c(NS(=O)(=O)c2cc3c(c(C(=O)O)c2)OCCO3)c1,6.569%,-7.101%
Cc1cc(NC(=O)N2CCCC2C(C)(C)O)c2ncccc2c1 (stereo not drawn),13.41%,10.95%
CC(=O)N1CCC(CN2CCN(Cc3nccn3C)C(C)C2)CC1 (stereo not drawn),-13.67%,-22.74%
Cc1cc(C2CCCN2C(=O)NCc2cccc(F)c2)on1 (stereo not drawn),-11.71%,10.64%
CCOc1cc(CNc2cc(-c3nc(C)no3)ccn2)ccc1OC,-13.27%,12.88% & -36.01%
O=c1c(CN2CCCCCC2)coc(O)c1CN1CCOCC1,-1.799%,-0.6549%
CC(=O)N1CCC(c2cncc(N3CCC(O)C3)n2)CC1 (stereo not drawn),7.637%,-4.621%
Nc1nc2c(c3c1C(=O)NC3=O)CCCC2,-15.31%,-29.37%
COCC1c2c(cnn2C)CCN1Cc1ccco1.O=C(O)C(F)(F)F.O=C(O)C(F)(F)F (stereo not drawn),-36.05%,-19.08%
O=C(NCC1(O)CCOCC1)c1ccn(-c2ccccc2F)n1,-1.033%,11.04% & 10.83%
Nc1cc(-c2nccnc2N2CCCC2)c2cc[nH]c2n1,-8.989% & -16.41%,-14.25%
CSC1(CNC(=O)CCc2ccc(Cl)s2)CCOCC1,37.63%,50.1%
Cc1cc2nccc(C3CCCN(C(=O)c4cnccn4)C3)n2n1 (stereo not drawn),8.164%,-7.043%
CC(=O)N1CCN(CC2CCOc3ccccc3C2)CC1 (stereo not drawn),-22.21%,-18.93% & -6.717%
CN(Cc1cccc(C(=O)Nc2ccnn2C)c1)CC1(C)COC1,-5.917%,14.7%
CC(C)N1CCN(C(=O)Nc2cnn(CC(N)=O)c2)CC1,-14.69%,-19.09%
CCN1CCN(c2ccc(F)cc2C(C)NCc2nc(C)no2)CC1 (stereo not drawn),18.98%,19.28% & 14.5%
Cn1cc(C(=O)NCCC(=O)N2CCCCC2)c(-c2cccnc2)n1,-11.25%,-6.556% & -1.981%
CS(=O)(=O)CCCNC1(c2cccc(F)c2)CC1,-10.05% & -1%,34.93%
CC1=C(C(=O)NCc2cccnc2-n2cnc3ccccc32)OCCO1,23.26%,14.71%
CC(=O)N(Cc1ncc(C(C)C)o1)C1CCN(Cc2nccn2C)C1 (stereo not drawn),-22.38%,-34.71%
Cn1cc(-c2ccnc(NCC3CCN(Cc4ccccc4)C3)n2)cn1 (stereo not drawn),-4.326%,30.75% & 18.05%
CC(C)c1cc(NCC(O)c2ccccn2)n2nccc2n1 (stereo not drawn),-7.679%,7.396% & 3.244%
CNS(=O)(=O)CCCN1CCN(C(C#N)c2ccccc2)CC1 (stereo not drawn),-1.203%,-6.764%
O=C(O)C(F)(F)F.O=C(c1ccno1)N1CCc2ncnc(-c3ccncc3)c2CC1,7.073%,4.941%
CCn1ncc2c1CCCC2NCc1ccc(OC)c(F)c1 (stereo not drawn),1.866%,3.227%
COc1ccc(-c2n[nH]cc2CNC2CCN(C3CC3)CC2)cc1.Cl,-1.184%,-14.01%
CN(C)c1cc2c(nn1)CCN(C(=O)C1COc3ccccc3C1)C2 (stereo not drawn),-4.8%,-14.76%
CN(C)c1cccc(CNC(=O)Nc2ccc3[nH]nnc3c2)n1,-8.792%,-3.718% & -6.975%
Cc1ccc(C(O)CNC(=O)NCc2nc(C)cs2)cc1 (stereo not drawn),3.162%,-6.883%
O=C(NCCN1CCOC1=O)c1cc(-c2ccccc2)on1,-21.54%,-5.156% & -50.55%
[H][C@@]12CCN(S(=O)(=O)c3ccc(C)cc3)C[C@]1(C(=O)NC)CCO2,1.446% & -16.27%,-18.97%
Cc1cccn2c(CC(=O)N3CCC(CCn4cccn4)CC3)cnc12,-11.56%,0.3192%
CC(C)(O)CSCCNC(=O)c1cc(F)ccc1F,-18.99%,10.63%
COCCN1CCC2(CCN(Cc3nccs3)CC2)C1=O,9.27%,8.451%
CC(C)C[C@H](NC(=O)NC1CCS(=O)(=O)C1)C(=O)NCc1cccnc1 (stereo partly drawn),5.986%,-8.5%
[H][C@@]12CS(=O)(=O)C[C@]1([H])N(C(=O)c1cc(Cl)no1)CCN2C(=O)C(C)C,-15.44% & -4.9%,-9.845%
Cn1c(C(F)(F)F)nn(CCNC(=O)Nc2ccccc2Cl)c1=O,-24.44%,-30.51%
CCn1ncc2c1CCCC2NCc1ccc(OC)cc1OC (stereo not drawn),3.668%,3.064%
Cc1cnc(CN2CCOC(Cn3nc(C)cc3C)C2)cn1 (stereo not drawn),-33.28%,-23.62%
CCS(=O)(=O)N1CCc2cc(C(=O)NC)c(NCC(C)C)nc2CC1,-7.447% & -17.43%,-40.41% & -2.039%
Cc1cc(NC2CCc3ncnn3C2)n2ncnc2n1 (stereo not drawn),-7.977%,-14.31%
CC(C)CCN1CCN(C(=O)c2c[nH]c(=O)[nH]2)CC1,18.3%,0.2268% & 8.901%
CC(=O)N1CCC2(CCN(CC3CCOC3)C2)CC1 (stereo not drawn),7.991%,12.55%
COc1c(CNCC(O)c2ccc(C)cc2)c(C(C)C)nn1C (stereo not drawn),13.39%,28.81%
CN(C)CCOCC1CN(Cc2ccoc2)Cc2nnn(C)c21.O=C(O)C(F)(F)F.O=C(O)C(F)(F)F (stereo not drawn),-1.359%,15.84%
Cc1csc(CNC(=O)NC(C)c2ccc3c(c2)CCC(=O)N3)n1 (stereo not drawn),-5.76%,6.398%
CCOC(=O)NC(CNC(=O)c1cn(C)cn1)CC(C)C (stereo not drawn),14.63%,25.68% & 3.103%
CN1CCCN(C(=O)c2nnn(-c3ccc(C(F)(F)F)cc3)n2)CC1,32.7%,9.169% & 7.038%
CCOCc1nnc(NCc2cccc(C)c2)o1,20.88%,8.667%
CC1CCCCN1C(=O)c1ccn(COc2ccc(F)cc2)n1 (stereo not drawn),-3.739%,24.46%
Cc1nn(CC(=O)n2cccn2)c(C)c1I,-31.07%,-32.19%
Cc1ccc(C(=O)N2CCC3(CCCCC3)C2)c(=O)[nH]1,-14.37%,-7.579%
CN1CCN(C(CNC(=O)CCn2cccn2)c2cccs2)CC1 (stereo not drawn),11.63%,-4.051%
Cc1noc(C)c1CN(C)CC1CCCN1c1cccnn1 (stereo not drawn),-22.49%,-16.78%
CNc1cncc(C2CCCN2C(=O)c2ccc3nc(C)[nH]c3c2)n1 (stereo not drawn),-5.231%,-6.644%
O=C(NCc1ccccc1Cn1cncn1)C1CCCCC1,-3.171%,18.46%
CN(C(=O)c1cnc(N2CCOCC2)nc1)C1Cc2ccccc2C1,-20.07%,12.25%
Cc1cccc(C)c1OCC(C)Nc1nc(N)nc2c1CCNC2 (stereo not drawn),-6.939%,-6.339%
O=S(=O)(c1ccc(Cl)cc1)N1CCN(CCCn2ccnc2)CC1,17.41%,-29.67% & 7.94%
CN(Cc1nc2ccccc2[nH]1)C(=O)CN(C)c1ccc(Cl)cn1,3.267%,5.232% & -10.3%
CC(C)=CCCC(C)CN1CCC(n2cc(C(=O)NCCO)nn2)CC1 (stereo not drawn),-3.607%,0.8199%
CC(C)[C@@H]1CN(Cc2cnc3c(S(C)(=O)=O)cnn3c2)C[C@H]1N(C)C,5.937%,-8.21% & 2.414%
CN(CCOc1cccc(CN)c1)C1CCOCC1,0.3498%,7.418%